These are yes or no findings as the source states them, for the method shown. Binding seen in cells or lysates may run through a third protein. Some entries that bind do so weakly or less than the wild type.
Target: Epidermal growth factor receptor (EGFR) (UniProt P00533)
Test: co-immunoprecipitation, Western blot

The chains behind the UniProt entries cited, without tags or fusion partners. Where a name states a change or a piece, a line headed by the entry shows the natural chain unless it says otherwise.
UniProt Q16706: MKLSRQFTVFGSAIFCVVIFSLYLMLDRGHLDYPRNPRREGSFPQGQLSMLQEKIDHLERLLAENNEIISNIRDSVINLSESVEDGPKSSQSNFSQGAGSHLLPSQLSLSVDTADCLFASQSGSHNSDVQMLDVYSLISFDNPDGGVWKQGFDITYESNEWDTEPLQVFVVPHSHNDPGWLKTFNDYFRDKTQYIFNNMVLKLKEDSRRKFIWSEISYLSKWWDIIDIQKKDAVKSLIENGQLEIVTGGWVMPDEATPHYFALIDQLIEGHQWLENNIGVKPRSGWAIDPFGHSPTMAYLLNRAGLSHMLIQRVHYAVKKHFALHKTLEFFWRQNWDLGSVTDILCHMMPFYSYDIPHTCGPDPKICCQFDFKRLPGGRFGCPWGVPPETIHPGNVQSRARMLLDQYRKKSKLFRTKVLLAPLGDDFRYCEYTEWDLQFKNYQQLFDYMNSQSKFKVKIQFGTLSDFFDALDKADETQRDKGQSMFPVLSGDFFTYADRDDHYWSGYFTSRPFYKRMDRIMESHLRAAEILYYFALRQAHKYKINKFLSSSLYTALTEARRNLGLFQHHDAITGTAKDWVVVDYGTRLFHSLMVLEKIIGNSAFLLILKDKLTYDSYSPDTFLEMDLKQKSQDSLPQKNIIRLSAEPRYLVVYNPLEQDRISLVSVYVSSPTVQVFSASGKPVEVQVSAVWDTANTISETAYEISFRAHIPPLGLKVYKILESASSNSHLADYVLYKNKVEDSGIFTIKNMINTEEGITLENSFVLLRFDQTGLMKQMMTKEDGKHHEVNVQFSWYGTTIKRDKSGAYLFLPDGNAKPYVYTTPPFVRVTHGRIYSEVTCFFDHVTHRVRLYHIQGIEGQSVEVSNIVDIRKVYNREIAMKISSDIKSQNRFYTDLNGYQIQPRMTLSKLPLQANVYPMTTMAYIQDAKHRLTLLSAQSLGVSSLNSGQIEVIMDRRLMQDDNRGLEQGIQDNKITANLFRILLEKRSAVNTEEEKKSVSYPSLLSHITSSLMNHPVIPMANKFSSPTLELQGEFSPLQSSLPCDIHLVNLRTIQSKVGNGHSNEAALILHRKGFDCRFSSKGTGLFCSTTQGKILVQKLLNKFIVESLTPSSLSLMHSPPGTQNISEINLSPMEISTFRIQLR

- binding: binds
Substance: MAN2A1-FER-FLAG (from UniProt Q16706 1-703; P16591 572-822) (enzyme)

Reference: patent publication US20200032346A1
